From paper PMC4255636
Results are given in words; binding and its absence hold for the method and conditions named. In cells and extracts the contact can be indirect. Some binding calls cover weakened binding; strength is not graded here. Tags and fused reporters may be left off the sequences shown.

Protein sequences, listed by entry. Tags and fused reporters are not part of them. Residues count along the entry.
UniProt P28799, residues 18-593: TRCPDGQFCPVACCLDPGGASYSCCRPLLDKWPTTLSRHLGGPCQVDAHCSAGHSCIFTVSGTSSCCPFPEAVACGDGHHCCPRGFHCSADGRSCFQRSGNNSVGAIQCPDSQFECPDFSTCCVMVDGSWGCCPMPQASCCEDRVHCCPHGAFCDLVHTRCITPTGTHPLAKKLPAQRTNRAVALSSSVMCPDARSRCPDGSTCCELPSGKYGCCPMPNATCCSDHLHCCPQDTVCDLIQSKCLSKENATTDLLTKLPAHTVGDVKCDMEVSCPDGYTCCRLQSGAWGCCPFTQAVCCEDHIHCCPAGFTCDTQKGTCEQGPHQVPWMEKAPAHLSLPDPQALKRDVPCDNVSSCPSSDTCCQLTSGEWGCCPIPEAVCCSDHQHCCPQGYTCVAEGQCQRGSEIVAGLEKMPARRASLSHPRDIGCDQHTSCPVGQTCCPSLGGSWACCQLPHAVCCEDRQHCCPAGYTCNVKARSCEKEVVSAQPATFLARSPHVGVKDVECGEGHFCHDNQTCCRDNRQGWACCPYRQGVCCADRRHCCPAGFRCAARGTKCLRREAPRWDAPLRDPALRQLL

Target: Flag-tagged progranulin (PGRN) (human) (UniProt P28799)
Experiment: co-IP; Myc-tagged PLD3 and Flag-tagged PGRN coexpressed in HEK293 cells; protein extract immunoprecipitated with anti-Flag M2 affinity gel then western blot with anti-Myc, or with anti-Myc agarose then western blot with anti-Flag; normal IgG as control

B1: Myc-tagged phospholipase D3 (PLD3) (protein, UniProt Q8IV08 1-490)
chain: MKPKLMYQELKVPAEEPANELPMNEIEAWKAAEKKARWVLLVLILAVVGFGALMTQLFLWEYGDLHLFGPNQRPAPCYDPCEAVLVESIPEGLDFPNASTGNPSTSQAWLGLLAGAHSSLDIASFYWTLTNNDTHTQEPSAQQGEEVLRQLQTLAPKGVNVRIAVSKPSGPQPQADLQALLQSGAQVRMVDMQKLTHGVLHTKFWVVDQTHFYLGSANMDWRSLTQVKELGVVMYNCSCLARDLTKIFEAYWFLGQAGSSIPSTWPRFYDTRYNQETPMEICLNGTPALAYLASAPPPLCPSGRTPDLKALLNVVDNARSFIYVAVMNYLPTLEFSHPHRFWPAIDDGLRRATYERGVKVRLLISCWGHSEPSMRAFLLSLAALRDNHTHSDIQVKLFVVPADEAQARIPYARVNHNKYMVTERATYIGTSNWSGNYFTETAGTSLLVTQNGRGGLRSQLEAIFLRDWDSPYSHDLDTSADSVGNACRLL
B1 was tested, and the binding was “binds”.
